Results are given in words; binding and its absence hold for the method and conditions named. For part of these data: A result given as binding can be weak or reduced; the word gives no strength. For part of these data: Tags and fused reporters may be left off the sequences shown. For part of these data: Binding seen in cells or lysates may run through a third protein.

Amino acid sequences for entries named in this document (tags omitted). A change or cut given only in a name is not applied to a line headed by its entry.
UniProt Q94AT1: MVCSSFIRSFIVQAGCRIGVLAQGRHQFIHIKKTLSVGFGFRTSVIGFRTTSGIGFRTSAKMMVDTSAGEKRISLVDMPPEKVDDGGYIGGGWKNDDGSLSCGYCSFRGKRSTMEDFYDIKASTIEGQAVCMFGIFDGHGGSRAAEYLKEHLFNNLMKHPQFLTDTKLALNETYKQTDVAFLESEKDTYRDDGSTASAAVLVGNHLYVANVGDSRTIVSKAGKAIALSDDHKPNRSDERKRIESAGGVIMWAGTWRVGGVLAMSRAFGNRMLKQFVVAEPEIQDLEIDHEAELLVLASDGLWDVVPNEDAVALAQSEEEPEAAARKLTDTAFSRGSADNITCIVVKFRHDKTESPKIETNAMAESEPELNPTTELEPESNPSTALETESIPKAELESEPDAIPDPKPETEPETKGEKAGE
UniProt O65472: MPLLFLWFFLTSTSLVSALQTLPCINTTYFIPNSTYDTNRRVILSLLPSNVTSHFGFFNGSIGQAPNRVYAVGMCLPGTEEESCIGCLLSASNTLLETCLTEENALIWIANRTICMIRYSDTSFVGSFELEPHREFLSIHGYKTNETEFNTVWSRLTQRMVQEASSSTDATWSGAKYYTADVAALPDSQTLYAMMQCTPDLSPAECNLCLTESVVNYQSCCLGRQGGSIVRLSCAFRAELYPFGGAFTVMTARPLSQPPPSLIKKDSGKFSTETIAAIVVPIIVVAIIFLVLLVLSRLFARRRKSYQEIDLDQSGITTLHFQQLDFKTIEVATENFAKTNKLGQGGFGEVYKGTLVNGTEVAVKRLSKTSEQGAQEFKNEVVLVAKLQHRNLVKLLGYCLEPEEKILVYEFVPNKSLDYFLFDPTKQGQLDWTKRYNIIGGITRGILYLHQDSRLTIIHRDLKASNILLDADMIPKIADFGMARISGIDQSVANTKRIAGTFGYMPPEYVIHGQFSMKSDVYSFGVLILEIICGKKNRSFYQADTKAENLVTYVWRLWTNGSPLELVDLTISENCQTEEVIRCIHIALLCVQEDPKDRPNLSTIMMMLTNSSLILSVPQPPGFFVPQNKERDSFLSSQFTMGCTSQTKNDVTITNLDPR
UniProt Q8H199: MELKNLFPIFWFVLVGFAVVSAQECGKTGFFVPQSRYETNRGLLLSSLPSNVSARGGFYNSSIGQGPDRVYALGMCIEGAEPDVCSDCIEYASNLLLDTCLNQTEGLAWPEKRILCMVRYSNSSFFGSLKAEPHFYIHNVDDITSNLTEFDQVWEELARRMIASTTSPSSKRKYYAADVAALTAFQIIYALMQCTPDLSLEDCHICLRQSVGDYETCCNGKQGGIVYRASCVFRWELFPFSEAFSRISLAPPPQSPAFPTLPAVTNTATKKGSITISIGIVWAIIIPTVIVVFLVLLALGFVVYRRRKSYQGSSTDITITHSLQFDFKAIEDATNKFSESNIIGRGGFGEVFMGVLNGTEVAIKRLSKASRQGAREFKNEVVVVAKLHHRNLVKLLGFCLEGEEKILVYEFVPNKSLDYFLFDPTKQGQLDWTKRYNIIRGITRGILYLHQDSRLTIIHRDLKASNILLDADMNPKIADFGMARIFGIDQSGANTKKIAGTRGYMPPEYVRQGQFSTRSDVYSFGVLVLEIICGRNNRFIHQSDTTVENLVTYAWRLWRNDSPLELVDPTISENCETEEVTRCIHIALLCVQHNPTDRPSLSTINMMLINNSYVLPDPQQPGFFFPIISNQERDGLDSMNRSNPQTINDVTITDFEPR
UniProt O65476: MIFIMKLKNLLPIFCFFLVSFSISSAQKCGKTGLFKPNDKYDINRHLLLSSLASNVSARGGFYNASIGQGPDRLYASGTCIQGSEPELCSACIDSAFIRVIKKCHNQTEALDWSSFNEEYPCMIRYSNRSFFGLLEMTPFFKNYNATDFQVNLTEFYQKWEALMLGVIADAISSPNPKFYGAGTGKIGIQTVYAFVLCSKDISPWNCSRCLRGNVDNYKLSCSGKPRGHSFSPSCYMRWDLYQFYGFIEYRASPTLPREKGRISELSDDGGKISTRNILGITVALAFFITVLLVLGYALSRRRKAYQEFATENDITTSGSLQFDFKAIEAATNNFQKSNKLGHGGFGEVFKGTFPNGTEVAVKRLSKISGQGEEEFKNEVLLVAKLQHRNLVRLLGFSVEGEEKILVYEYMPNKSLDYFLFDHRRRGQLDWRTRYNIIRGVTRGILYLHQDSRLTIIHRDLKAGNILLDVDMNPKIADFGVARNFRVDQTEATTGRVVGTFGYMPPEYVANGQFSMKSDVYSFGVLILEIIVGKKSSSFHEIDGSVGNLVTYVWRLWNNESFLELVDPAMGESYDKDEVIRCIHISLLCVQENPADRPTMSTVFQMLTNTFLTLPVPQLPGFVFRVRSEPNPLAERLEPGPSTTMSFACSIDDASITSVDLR
UniProt Q8RX80: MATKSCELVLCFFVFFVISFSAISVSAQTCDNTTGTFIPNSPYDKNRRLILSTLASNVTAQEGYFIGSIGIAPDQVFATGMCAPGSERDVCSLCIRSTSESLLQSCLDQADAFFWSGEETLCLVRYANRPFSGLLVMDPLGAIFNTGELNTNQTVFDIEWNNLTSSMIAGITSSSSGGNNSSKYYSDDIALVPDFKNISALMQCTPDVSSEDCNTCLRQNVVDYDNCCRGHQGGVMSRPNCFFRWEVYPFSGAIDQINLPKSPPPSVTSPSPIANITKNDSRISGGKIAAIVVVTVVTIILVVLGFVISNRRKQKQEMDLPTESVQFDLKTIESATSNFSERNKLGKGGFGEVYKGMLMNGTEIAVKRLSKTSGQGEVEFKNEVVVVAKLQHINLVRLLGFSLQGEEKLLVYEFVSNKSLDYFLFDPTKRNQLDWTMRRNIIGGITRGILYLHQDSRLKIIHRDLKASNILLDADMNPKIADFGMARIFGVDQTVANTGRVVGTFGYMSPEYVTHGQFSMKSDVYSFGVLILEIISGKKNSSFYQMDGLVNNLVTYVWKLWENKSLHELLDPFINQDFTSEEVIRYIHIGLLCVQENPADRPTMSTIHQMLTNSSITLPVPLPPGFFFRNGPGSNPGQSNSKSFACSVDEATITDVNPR
UniProt Q3E9X6: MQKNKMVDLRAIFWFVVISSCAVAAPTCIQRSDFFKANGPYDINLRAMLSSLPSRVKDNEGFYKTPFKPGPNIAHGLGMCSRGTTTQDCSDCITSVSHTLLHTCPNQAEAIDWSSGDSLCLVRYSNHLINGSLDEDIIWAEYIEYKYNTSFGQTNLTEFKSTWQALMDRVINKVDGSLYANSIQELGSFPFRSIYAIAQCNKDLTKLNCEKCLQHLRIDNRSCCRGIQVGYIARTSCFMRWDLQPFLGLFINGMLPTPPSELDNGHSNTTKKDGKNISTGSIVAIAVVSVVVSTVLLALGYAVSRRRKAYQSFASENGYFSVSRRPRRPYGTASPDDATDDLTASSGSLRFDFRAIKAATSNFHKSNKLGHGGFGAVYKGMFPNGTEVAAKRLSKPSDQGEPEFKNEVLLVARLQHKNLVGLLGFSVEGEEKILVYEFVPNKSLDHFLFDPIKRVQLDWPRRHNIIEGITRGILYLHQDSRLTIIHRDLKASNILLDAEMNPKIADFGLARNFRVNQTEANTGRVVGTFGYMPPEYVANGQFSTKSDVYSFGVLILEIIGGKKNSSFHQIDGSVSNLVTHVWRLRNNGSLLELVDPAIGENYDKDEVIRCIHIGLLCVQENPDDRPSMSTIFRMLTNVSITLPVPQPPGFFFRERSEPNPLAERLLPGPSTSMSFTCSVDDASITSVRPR
UniProt O65483: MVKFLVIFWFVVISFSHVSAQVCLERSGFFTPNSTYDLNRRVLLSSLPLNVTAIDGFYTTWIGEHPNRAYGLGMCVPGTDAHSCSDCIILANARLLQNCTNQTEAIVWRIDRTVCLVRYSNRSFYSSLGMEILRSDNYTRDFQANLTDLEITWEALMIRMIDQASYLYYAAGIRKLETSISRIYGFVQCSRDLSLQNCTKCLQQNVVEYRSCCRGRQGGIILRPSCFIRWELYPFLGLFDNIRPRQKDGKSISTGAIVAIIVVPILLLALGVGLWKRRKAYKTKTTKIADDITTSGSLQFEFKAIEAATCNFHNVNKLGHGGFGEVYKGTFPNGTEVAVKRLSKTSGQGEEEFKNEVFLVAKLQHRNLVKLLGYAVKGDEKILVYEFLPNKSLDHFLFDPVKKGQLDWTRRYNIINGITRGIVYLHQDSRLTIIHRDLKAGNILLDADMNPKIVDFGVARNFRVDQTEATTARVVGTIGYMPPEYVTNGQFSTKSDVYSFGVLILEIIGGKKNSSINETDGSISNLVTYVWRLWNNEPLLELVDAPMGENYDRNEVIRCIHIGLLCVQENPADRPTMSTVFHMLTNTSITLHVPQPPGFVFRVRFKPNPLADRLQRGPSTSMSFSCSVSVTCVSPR
UniProt Q9LDT0: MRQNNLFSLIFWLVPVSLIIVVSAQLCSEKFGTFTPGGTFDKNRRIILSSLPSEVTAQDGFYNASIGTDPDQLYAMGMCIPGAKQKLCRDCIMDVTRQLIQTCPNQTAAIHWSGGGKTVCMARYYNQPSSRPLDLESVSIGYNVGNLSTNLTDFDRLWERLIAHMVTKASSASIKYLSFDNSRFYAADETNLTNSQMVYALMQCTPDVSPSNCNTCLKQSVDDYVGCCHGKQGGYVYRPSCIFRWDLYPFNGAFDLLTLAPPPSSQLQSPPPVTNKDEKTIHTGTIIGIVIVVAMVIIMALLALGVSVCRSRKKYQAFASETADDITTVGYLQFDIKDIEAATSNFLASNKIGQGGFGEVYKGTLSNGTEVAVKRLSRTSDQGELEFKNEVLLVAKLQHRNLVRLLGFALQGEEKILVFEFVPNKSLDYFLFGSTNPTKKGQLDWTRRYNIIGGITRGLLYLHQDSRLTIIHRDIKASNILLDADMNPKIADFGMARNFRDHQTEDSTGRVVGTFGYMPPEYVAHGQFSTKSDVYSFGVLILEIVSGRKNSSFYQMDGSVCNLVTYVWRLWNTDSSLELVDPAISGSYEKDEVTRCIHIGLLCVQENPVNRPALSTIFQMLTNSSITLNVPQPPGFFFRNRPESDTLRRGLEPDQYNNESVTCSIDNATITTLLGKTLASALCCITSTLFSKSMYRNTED
UniProt Q9LDN1: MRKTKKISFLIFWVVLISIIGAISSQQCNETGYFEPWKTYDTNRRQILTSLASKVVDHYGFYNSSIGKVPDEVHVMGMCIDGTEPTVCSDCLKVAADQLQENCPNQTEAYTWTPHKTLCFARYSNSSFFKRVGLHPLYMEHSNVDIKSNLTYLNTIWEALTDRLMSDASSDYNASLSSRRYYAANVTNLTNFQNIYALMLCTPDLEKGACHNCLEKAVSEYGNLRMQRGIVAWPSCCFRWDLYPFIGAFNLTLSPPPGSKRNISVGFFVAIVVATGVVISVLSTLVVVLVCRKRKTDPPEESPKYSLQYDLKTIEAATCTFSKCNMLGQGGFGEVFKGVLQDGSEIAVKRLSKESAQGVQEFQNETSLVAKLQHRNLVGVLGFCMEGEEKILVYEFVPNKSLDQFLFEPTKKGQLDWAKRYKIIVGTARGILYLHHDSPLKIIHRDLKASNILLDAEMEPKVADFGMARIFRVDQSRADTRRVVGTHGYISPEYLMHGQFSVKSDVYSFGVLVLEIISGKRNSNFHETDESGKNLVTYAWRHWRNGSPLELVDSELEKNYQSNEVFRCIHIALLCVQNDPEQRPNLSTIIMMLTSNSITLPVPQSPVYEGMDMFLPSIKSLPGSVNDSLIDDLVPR
UniProt Q39026: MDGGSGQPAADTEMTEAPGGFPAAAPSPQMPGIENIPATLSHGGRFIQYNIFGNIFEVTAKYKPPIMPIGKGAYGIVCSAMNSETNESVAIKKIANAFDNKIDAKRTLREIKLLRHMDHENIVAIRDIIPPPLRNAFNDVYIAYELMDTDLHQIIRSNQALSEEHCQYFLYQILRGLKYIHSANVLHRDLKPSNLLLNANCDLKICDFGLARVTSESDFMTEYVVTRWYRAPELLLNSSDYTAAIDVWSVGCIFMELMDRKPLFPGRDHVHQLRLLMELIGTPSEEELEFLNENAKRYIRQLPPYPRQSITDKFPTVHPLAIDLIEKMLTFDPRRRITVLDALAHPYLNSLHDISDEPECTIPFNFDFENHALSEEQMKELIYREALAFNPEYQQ

For one test, the target named is T1, MKK3 fused to the GAL4 DNA-binding domain (BD) (Arabidopsis thaliana) (UniProt O80396).
T1 sequence: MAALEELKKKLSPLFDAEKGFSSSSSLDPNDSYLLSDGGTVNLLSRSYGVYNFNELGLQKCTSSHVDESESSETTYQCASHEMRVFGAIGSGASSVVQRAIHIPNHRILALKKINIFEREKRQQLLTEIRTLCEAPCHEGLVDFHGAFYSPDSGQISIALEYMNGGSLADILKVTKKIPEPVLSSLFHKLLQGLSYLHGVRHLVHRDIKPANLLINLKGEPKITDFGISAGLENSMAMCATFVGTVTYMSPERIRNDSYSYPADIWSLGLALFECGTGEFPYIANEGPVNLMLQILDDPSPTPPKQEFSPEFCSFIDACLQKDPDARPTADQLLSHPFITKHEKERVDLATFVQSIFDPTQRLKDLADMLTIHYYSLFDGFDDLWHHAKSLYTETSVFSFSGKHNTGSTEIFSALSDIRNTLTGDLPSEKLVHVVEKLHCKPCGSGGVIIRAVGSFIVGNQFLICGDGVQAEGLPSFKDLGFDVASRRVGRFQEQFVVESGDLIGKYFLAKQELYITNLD
Put plainly: two-hybrid.
Consider “PP2C76 fused to the GAL4-activating domain (AD) (from UniProt Q94AT1) (enzyme)”, for which the binding entry is reported as “no binding”.

Another test deals with T2, MKKK20 fused to the GAL4 DNA-binding domain (BD-MKKK20) (Arabidopsis thaliana) (UniProt Q9SND6).
T2 sequence: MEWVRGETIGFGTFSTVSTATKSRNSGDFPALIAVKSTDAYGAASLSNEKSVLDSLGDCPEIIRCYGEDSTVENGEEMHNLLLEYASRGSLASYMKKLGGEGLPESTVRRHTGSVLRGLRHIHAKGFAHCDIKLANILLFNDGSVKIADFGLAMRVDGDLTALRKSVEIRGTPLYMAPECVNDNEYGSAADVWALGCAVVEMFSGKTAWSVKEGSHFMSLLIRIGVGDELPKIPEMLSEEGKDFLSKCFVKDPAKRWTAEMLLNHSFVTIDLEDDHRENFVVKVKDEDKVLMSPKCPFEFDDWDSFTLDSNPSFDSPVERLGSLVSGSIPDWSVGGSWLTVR
Nature of the test: two-hybrid.
Consider “CRK12 cytosolic kinase domain fused to AD (CRK12-CD) (from UniProt O65472) (domain or fragment)”, for which the binding result is “binds”.

“CRK14 cytosolic kinase domain fused to AD (CRK14-CD) (from UniProt Q8H199) (domain or fragment)”: the binding entry is reported as “binds”. For the substance “CRK16 cytosolic kinase domain fused to AD (CRK16-CD) (from UniProt O65476) (domain or fragment)”, the binding result is reported as “binds weakly”.

Consider “CRK18 cytosolic kinase domain fused to AD (CRK18-CD) (from UniProt Q8RX80) (domain or fragment)”, for which the binding result is recorded as “binds”. Same read-out and setting: the same measure for “CRK21 cytosolic domain fused to the GAL4-activating domain (AD-CRK21-CD) (from UniProt Q3E9X6) (domain or fragment)”: “binds”. Still for that read-out and setting: with “CRK24 cytosolic kinase domain fused to AD (CRK24-CD) (from UniProt O65483) (domain or fragment)” the entry was “binds”; with “CRK30 cytosolic kinase domain fused to AD (CRK30-CD) (from UniProt Q9LDT0) (domain or fragment)”, “binds”; with “CRK33 cytosolic kinase domain fused to AD (CRK33-CD) (from UniProt Q9LDN1) (domain or fragment)”, “binds”. The same measure, in the same setting: the same measure for “PP2C76 fused to the GAL4-activating domain (AD) (from UniProt Q94AT1) (enzyme)”: “binds”.

Another test has as its target MPK6 fused to the GAL4 DNA-binding domain (BD) (Arabidopsis thaliana) (UniProt Q39026). Put plainly: two-hybrid.
With “PP2C76 fused to the GAL4-activating domain (AD) (from UniProt Q94AT1) (enzyme)”, the binding result is on record as “no binding”.

For another test, the target named is T3, MKKK20-cYFP (Arabidopsis thaliana) (UniProt Q9SND6).
T3 sequence: T2 sequence
Put plainly: split reporter.
Turning to “PP2C76, nYFP-tagged (from UniProt Q94AT1) (enzyme)”, the binding entry is on record as “binds”.

(Values after publication doi:10.1101/2022.03.27.486008.)
